Measurements from US20220281966A1.
Results are given in words; binding and its absence hold for the method and conditions named. Some entries that bind do so weakly or less than the wild type.

Amino acid sequences for entries named in this document (tags omitted). A change or cut given only in a name is not applied to a line headed by its entry. Residues count along the entry.
UniProt P35225, residues 35-146: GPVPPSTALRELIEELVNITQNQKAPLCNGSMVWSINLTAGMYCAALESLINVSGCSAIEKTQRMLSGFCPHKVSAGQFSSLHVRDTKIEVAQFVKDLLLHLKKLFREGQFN

Assays:
[1] = molecular target: IL-13 (human IL-13, preparation not specified) (human) (UniProt P35225); experiment: dot blot on IL-13 purified protein, non-reduced
[2] = molecular target: Human IL-13-Mouse IL-13 Helix D chimera (human with mouse Helix D); experiment: ELISA on secreted chimeric IL-13
[3] = molecular target: Human IL-13-Mouse IL-13 Helix A chimera (human with mouse Helix A) (UniProt P35225); experiment: ELISA on secreted chimeric IL-13
[4] = molecular target: Human IL-13-Mouse IL-13 Helix C chimera (human with mouse Helix C) (UniProt P35225); experiment: ELISA on secreted chimeric IL-13
[5] = molecular target: Human IL-13-Mouse IL-13 Helix B chimera (human with mouse Helix B) (UniProt P35225); experiment: ELISA on secreted chimeric IL-13
[6] = molecular target: IL-13 (human IL-13, preparation not specified) (human) (UniProt P35225); experiment: competition ELISA: antibody pre-incubated with soluble IL-13, then put on plates coated with IL-13RbFc
[7] = molecular target: IL-13 (human IL-13, preparation not specified) (human) (UniProt P35225); experiment: ELISA on secreted IL-13
[8] = molecular target: IL-13 (human IL-13, preparation not specified) (human) (UniProt P35225); experiment: dot blot on IL-13 purified protein
[9] = molecular target: T1, 693 phage; experiment: panning of a 12-mer random peptide phage display library on mAb 693
T1 sequence (peptide): YKIGEPHKDTYM

Measured: binding

B1: antibody 623 (antibody, V domains shown)
VH: EVQLVESGGGLVKPGGSLRLSCAASGFTFSNAWMSWVRQAPGKGLEWVGRIRSEIDGGTTNYAAPVKGRFTISRDDSKNTLYLQMNSLKTEDTAVYYCATDQVGAYYGDYYGMDVWGQGTLVTVSS
VL: SYELTQPPSVSVSPGQTARITCSGDALPEKYAYWYQQKSGQAPVLVIYEDSKRPSGIPERFSGSSSGTMATLTISGAQVEDEADYYCHSTDSSGNHGVFGGGTKLTVL
not listed: [8] | [9]
binds: all other assays above

B2: antibody 602 (antibody, V domains shown)
VH: EVQLVESGGGLVKPGGSLRLSCAASGFTFSNAWMSWVRQAPGKGLEWVGRIRSKIDGGTINYAAPVKGRFTISRDDSKNTLYLQMNSLKTEDTAVYYCATDQVGAYYGDYYGMDVWGQGTLVTVSS
VL: SYELTQPPSVSVSPGQTARITCSGDALPEKYAYWYQQKSGQAPVLVIYEDTKRPSGIPERFSGSSSGTMATLTISGAQVEDEADYYCYSTDSSGNHGVFGGGTKLTVL
not listed: [6] | [8] | [9]
binds: all other assays above

B3: antibody 643 (antibody, V domains shown)
VH: EVQLVESGGGLVKPGGSLRLSCAASGFTFSNAWMSWVRQAPGKGLEWVGRIRSEIDGGTTNYAAPVKGRFTISRDDSKNTLYLQMNSLRTEDTAVYYCATDQVGAYYGDYYGMDVWGQGTLVTVSS
VL: SYELTQPPSVSVSPGQTARITCSGDALPEKYAYWYQQKSGQAPVLVIYEDSKRPSGIPERFSGSSSGTMATLTISGAQVEDEADYYCHSTDSSGNHGVFGGGTKLTVL
not listed: [6] | [8] | [9]
binds: all other assays above

B4: antibody 693 (antibody, V domains shown)
VH: QVQLQESGPGLVKPSETLSLTCSVSGGSISSYYWSWIRQPAGKGLEWIGRIYMTGRTNYNSSLKSRVTMSIDTSKNQLSLKLSFMTAADTAVYYCARESGSSYSYDYWGQGTLVTVSS
VL: SYVLTQPPSVSVAPGQTARITCGGNNIGSKGVHWYQQKPGQAPVLVVYDDSDRPSGIPERFSGSNSGNTATLTISRVEAGDEADYYCQVWVSSSDHHVVFGGGTKLTVV
not listed: [1] | [2] | [6]
binds: all other assays above
